Source: patent publication US5366983A, “Use of quaternary ammonium compounds to remove salmonella contamination from meat products” (The Board of Trustees of The University of Arkansas, priority 1992, dated 1994)
Where “and” joins values, the source holds several entries; their conditions need not be identical. Equal values may be shown once.

Legend:
[1] = test system: Salmonella typhimurium TA98; experiment: Salmonella reversion assay, TA98; conditions: TA98, absence of S9
Method: (§1) Test strains TA98 and TA100 were obtained from Bruce N. Ames (University of California, Berkley, Calif.). Mutagenicities were determined both in the absence of and in the presence of a mammalian liver S9 activating system. S9 is the 9000×g supernatant prepared from liver homogenates from Aroclor 1254 stimulated male Sprague Dawley rats. The S9 was purchased from Molecular Toxicology, Inc. (Anapolis, Md.).
(§2) Bacterial broth cultures were grown overnight at 37° with shaking in Oxoid Broth #2. For assays in the absence of S9, a 0.5 ml aliquot of 100 mM Sodium Phosphate Buffer, pH 7.4, was added to sterile 13×100 mm capped culture tubes. For assays in the presence of S9, a 0.5 ml aliquot of 10% S9 mix was added. The S9 mix consisted of 8 mM magnesium chloride, 33 mM potassium chloride, 5 mM glucose-6-phosphate, 4 mM NADP, 100 mM sodium phosphate, pH 7.4 and S9 in a concentration of approximately 1.46 mg protein/ml.
(§3) The culture tubes were placed in an ice bath and 0.1 ml of the bacterial suspension and 0.1 ml of a DMSO solution of the test compound were added. The mixture was vortexed gently and incubated at 37° for 20 minutes with shaking in a water bath. […] The revertant (mutant) colonies were counted and the background lawn was examined on all plates. […]

adherent S. typhimurium [2] = conditions: 50 μg/ml
[3] = test system: Salmonella attachment to human buccal epithelial cells; experiment: microbe, parasite or virus in culture; conditions: Epithelial cell, read-out: contamination prevented
[4] = test system: Salmonella typhimurium TA100; experiment: Salmonella reversion assay, TA100; conditions: TA100, absence of S9
Method: as §1, §2, §3

[5] = test system: Salmonella typhimurium ATCC 14028; experiment: Minimum growth inhibitory concentration, macrodilution; format: cell-based; conditions: Mueler Hinton broth, macrodilution (NCCLS)
Method: Minimum growth inhibitory concentrations (MICs) of quaternary ammonium compounds and Na2 -EDTA for Salmonella were determined using Mueler Hinton broth (BBL Microbiology system, Cockeysville, Md.) and by the macrodilution method established by the National Committee for Clinical Laboratory Standards (NCCLS). Escherichia coli ATCC 25922 and Staphylococcus aureus ATCC 29213 were included in each assay as reference strains.

[6] = test system: Salmonella typhimurium ATCC 14028; experiment: Effect on viability of Salmonella in suspension (Tables D-1 to D-3); format: cell-based; conditions: Salmonella enterica, read-out: EC50 (±SD), effect on viability in suspension
Method: EC50 values for four of the compounds were calculated from the bactericidal activity of the compounds as a function of molar concentration by a nonlinear regression algorithm.
In addition to the quaternary ammonium compounds, the antimicrobial activities of chelating agents Na2 -EDTA and EGTA were investigated. Na2 -EDTA was purchased from the Sigma Chemical Company (St. Louis, Mo.). Na2 -EDTA was dissolved in 0.04 M PPB prior to the assay and further dilutions were made in the same buffer.
EGTA was purchased from the Aldrich Chemical Company (Milwaukee, Wis.). EGTA was dissolved in 0.04 M PPB according to the procedure described by Harafuji and Ogawa (J. Biochem. 87:1305-1312 (1980)). After heating EGTA for 15 minutes at 80° C., the pH was adjusted to 7.0 by addition of NaOH. EGTA was filter-sterilized using a 0.2 μm Acro disc filter (Gelman Sciences; Ann Arbor, Mich.) prior to the assay. Further dilutions were made in sterile PPB.

adherent S. typhimurium [7] = experiment: microbe, parasite or virus in culture; conditions: Salmonella enterica, 10 min, read-out: adherent cells inactivated
[8] = test system: Salmonella typhimurium ATCC 14028 attached to human buccal epithelial cells; experiment: microbe, parasite or virus in culture; format: cell-based; conditions: Salmonella enterica, Epithelial cell
Method: Additional studies on the detachment of Salmonella typhimurium from human buccal epithelial cells were conducted. In this study, CPC, DPC, and HTMAB, TTMAB DTMAB, were evaluated.
S. typhimurium ATCC 14028 was grown in nutrient broth (BBL Microbiology system, Cockeysville, Md.) for 16 hours at 37° C. The cells were centrifuged and washed twice with 0.008 M phosphate buffered saline (PBS, at pH 7.2) at 4500 rpm for 10 minutes. The last suspension was diluted in PBS to obtain a cell concentration 0.5 to 1×10^9 cells/ml using spectrophotometric measurement. Human epithelial cells were obtained by swabbing the buccal surface of a healthy, nonsmoking donor. […] The number of living cells was estimated and the suspension was diluted to 0.5 to 1×10^5 cells/ml.
The suspension of the human buccal cells was mixed with an equal volume of the bacterial suspension (3.0 ml), or PBS (0.8 ml) in 10 ml Erlenmeyer flasks. Contact was allowed for 1.5 hours at 35° C. under agitation. After incubation, 1.0 ml of each suspension was transferred into an Eppendorff vial, centrifuged at 3000 rpm for 10 minutes, and washed with PBS. […]
EC50 represents the inverse measurement of the potency of a compound. EC50 values were determined by a nonlinear regression of the detachment effect versus the cationic surfactant concentration data from Table A-3.

**Q.** For `CCCCCCCCCCCCCCCC[n+]1ccccc1` [CPC, cetylpyridinium chloride], which “concentration producing a bactericidal response” value [1] is on record?
**A.** Its value is “above 10 μg/plate”.

**Q.** What about the “decrease in the number of Salmonella microcolonies” value (adherent S. typhimurium [2]) of the same compound?
**A.** The value was 31/2.

**Q.** And the inhibition at 10 µg/mL [3]?
**A.** The inhibition at 10 µg/mL was about 65%.

**Q.** And the “concentration producing a bactericidal response” value [4]?
**A.** Its value is “above 10 μg/plate”.

**Q.** What about the MIC [5] of the same compound?
**A.** The MIC was 40 µg/mL and 50 µg/mL.

**Q.** What about the MIC ([5]; Salmonella enterica) of the same compound?
**A.** The MIC was 64 µg/mL.

**Q.** And the EC50 [6]?
**A.** The EC50 was 42.7 ± 0.3 µM.

**Q.** What about the killing at 50 µg/mL (adherent S. typhimurium [7]) of the same compound?
**A.** The killing at 50 µg/mL was 99.8%.

**Q.** What about the EC50 ([8]; read-out: EC50 (±SD), detachment) of the same compound?
**A.** Its EC50 is 18.1 ± 3.6 µM.

**Q.** And the minimal effective concentration ([8]; read-out: active concentration, detachment)?
**A.** The minimal effective concentration was 5 µg/mL.
